Results are given in words; binding and its absence hold for the method and conditions named. Binding seen in cells or lysates may run through a third protein. Some results given as binding are weak or reduced against the parent protein; the word gives no strength.
Molecular target: His-tagged full-length Bag3 (FL) (UniProt O95817)
Assay: pull-down; transfected 293T cells fixed with 1.2% formaldehyde, lysed (DPBS, 0.5% Triton X-100, 10 mM imidazole), His-tagged Bag3 held on HisPur Ni-NTA resin at 4 °C, washed, eluted with 300 mM imidazole; associated LITAF detected by immunoblot

Amino acid sequences for entries named in this document (tags omitted).
UniProt O95817: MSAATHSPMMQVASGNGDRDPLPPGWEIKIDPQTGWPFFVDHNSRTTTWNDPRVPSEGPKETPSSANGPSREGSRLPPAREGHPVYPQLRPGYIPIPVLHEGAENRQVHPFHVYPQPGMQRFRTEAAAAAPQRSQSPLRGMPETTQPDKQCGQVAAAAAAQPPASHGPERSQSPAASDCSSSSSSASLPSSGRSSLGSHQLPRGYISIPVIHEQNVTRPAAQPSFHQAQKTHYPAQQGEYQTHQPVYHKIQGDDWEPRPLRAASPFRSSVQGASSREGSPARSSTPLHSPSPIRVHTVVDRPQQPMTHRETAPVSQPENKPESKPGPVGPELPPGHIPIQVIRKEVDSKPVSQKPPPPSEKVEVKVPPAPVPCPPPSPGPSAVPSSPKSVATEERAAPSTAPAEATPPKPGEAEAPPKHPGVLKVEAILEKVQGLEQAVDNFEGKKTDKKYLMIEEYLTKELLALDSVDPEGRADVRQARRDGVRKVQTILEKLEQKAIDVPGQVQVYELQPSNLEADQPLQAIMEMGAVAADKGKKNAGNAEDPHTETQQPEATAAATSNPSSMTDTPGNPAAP
UniProt Q99732: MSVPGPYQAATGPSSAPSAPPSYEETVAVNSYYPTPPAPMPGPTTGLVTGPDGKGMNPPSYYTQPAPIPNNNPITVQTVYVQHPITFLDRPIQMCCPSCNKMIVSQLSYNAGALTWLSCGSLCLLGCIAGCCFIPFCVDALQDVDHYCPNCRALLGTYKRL

binding: binds
Substance: lipopolysaccharide TNFα factor (LITAF) (from UniProt Q99732 1-161)

Source: publication PMC9454964
